Experimental data published in article PMC8538223.
These are yes or no findings as the source states them, for the method shown. In cells and extracts the contact can be indirect. Some entries that bind do so weakly or less than the wild type.

Sequences of proteins named here, by UniProt entry; tags and fusion partners are left off.
UniProt O89090: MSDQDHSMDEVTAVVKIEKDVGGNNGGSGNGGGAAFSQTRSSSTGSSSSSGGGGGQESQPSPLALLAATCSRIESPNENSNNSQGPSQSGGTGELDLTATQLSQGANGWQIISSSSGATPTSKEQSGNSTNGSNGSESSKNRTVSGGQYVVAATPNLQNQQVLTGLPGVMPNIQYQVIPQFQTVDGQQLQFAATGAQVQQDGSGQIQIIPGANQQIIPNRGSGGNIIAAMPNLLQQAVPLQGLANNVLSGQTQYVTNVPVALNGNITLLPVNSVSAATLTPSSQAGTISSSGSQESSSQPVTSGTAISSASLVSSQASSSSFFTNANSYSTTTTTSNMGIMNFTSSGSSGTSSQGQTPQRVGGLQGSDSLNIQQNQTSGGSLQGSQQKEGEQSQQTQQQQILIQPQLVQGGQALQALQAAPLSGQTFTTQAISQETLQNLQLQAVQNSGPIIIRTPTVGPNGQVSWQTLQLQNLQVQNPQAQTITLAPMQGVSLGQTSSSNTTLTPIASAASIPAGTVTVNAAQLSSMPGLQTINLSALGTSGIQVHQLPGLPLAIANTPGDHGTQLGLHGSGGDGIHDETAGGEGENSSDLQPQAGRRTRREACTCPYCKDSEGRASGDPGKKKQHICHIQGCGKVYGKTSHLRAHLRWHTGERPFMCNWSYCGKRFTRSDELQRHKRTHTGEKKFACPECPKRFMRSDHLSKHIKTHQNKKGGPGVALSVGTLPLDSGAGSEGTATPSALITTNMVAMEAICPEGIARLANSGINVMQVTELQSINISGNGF

Columns and labels:
[1] = target: Phosphorylated specificity protein 1 (pSp1) (mouse (endogenous in primary cortical astrocytes)) (UniProt O89090); assay: co-IP; endogenous proteins; RIPA lysate (1 mg protein, pre-cleared with Pansorbin) of primary mouse cortical astrocytes, control or treated with 5 mM NH4Cl for 24 h; antibody overnight at 4 °C, protein-G agarose; by the listed controls immunoprecipitation with Sp1 or pSp1 antibody and Western blot for …
[2] = target: Specificity protein 1 (Sp1) transcription factor (mouse (endogenous in primary cortical astrocytes)) (UniProt O89090); assay: as above

B1: Nuclear factor erythroid-related 2-like 2 (Nrf2) transcription factor (protein, UniProt Q60795 1-597)
chain: MMDLELPPPGLQSQQDMDLIDILWRQDIDLGVSREVFDFSQRQKDYELEKQKKLEKERQEQLQKEQEKAFFAQFQLDEETGEFLPIQPAQHIQTDTSGSASYSQVAHIPKQDALYFEDCMQLLAETFPFVDDHESLALDIPSHAESSVFTAPHQAQSLNSSLEAAMTDLSSIEQDMEQVWQELFSIPELQCLNTENKQLADTTAVPSPEATLTEMDSNYHFYSSISSLEKEVGNCGPHFLHGFEDSFSSILSTDDASQLTSLDSNPTLNTDFGDEFYSAFIAEPSDGGSMPSSAAISQSLSELLDGTIEGCDLSLCKAFNPKHAEGTMEFNDSDSGISLNTSPSRASPEHSVESSIYGDPPPGFSDSEMEELDSAPGSVKQNGPKAQPAHSPGDTVQPLSPAQGHSAPMRESQCENTTKKEVPVSPGHQKAPFTKDKHSSRLEAHLTRDELRAKALHIPFPVEKIINLPVDDFNEMMSKEQFNEAQLALIRDIRRRGKNKVAAQNCRKRKLENIVELEQDLGHLKDEREKLLREKGENDRNLHLLKRRLSTLYLEVFSMLRDEDGKPYSPSEYSLQQTRDGNVFLVPKSKKPDTKKN
**Q.** For B1, which binding [1] is on record?
**A.** binds

**Q.** And the binding [2]?
**A.** binds
